Measurements taken from PubChem BioAssay AID504467 (National Center for Advancing Translational Sciences (NCATS), 2011).
The campaign covered roughly 330,000 compounds. About 7,700 (2.3%) were called active. The inconclusive results got no clear call from the source; some entries with a clear call stand among them for comparison. The call rests on the fitted dose curve; in most records, active means well fitted inhibition curve with a large enough effect; inconclusive means small, poorly fitted or top-dose-only effect, or effect the other way; inactive means flat fitted curve, though single readings scatter. Potencies beside an inconclusive call are fits to weak or partial responses and may not hold up.

Assay: qHTS screen for small molecules that inhibit ELG1-dependent DNA repair in human embryonic kidney (HEK293T) cells expressing luciferase-tagged ELG1; further: nearly all actives have a fitted effect of over 55% in size
Conditions: HEK293T ELG1-luciferase reporter, luminescence, 16 h, DNA damage induced by 5-fluorouridine; series mostly up to 46.1 µM
Method in brief: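 Luminescence from the luciferase reporter, measured 30 min after ONE-Glo reagent at room temperature, was the read-out. Beforehand, 2,000 cells per well were exposed for 16 hr at 37 °C to 5-fluorouridine together with compound or vehicle.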
Potency means the concentration at half of the fitted maximal effect.

| Compound | Potency |
| --- | --- |
| CC(=O)c1cccc(NC(=S)NNC(=O)c2ccco2)c1 | inconclusive: 29.1 µM [activator, single point] |
| COc1ccc(CCNC(=O)CCNS(=O)(=O)c2cc(Br)cnc2N)cc1OC | inconclusive: 23.1 µM [inhibitor, single point] |
| CCOc1ccc(NC(=NCc2ccc3c(c2)OCO3)SC2CC(=O)N(c3ccc(OCC)cc3)C2=O)cc1 (stereo not drawn) | inconclusive: 16.4 µM [activator, partial curve] |
| Cc1noc2ncnc(Sc3ccc(Br)cc3)c12 | inconclusive: 29.1 µM [activator, single point] |
| CCN(CC)C(=O)Nc1ccc(C(=O)OC)cc1 | inconclusive: 16.4 µM [activator, partial curve, poor fit] |
| Cc1nc2sc(-c3ccccc3)cc2c(=O)[nH]1 | inconclusive: 1.46 µM [activator, partial curve] |
| COc1cc(C(=O)Nc2cccc(-c3nc4cc(C)ccc4o3)c2)cc(OC)c1OC | active: 14.6 µM |
| CCCCCn1nc(C)c(/C=N/NC(=O)c2ccoc2C)c1C | inconclusive: 5.8 µM [activator, partial curve] |
| Cc1nn(C)c(C)c1S(=O)(=O)N(CC(=O)NCCCN1CCC(C)CC1)c1ccc(C(C)C)cc1 | inconclusive: 29.1 µM [activator, single point] |
| CCCCOc1ncnc2c1[nH]c1ccccc12 | inconclusive: 5.62 µM [inhibitor, single point] |
| COCCn1c(=O)[nH]c2cc(C(=O)Nc3nnc(C)s3)ccc21 | inconclusive: 20.6 µM [activator, partial curve] |
| CC(C)(C)OC(=O)N1CCC(C(=O)N[C@H](C(=O)O)c2ccccc2)(c2ccccc2)CC1 | inactive |
| O=C(c1ccc(=O)n(Cc2ccccc2)n1)N1CCN(C/C=C/c2ccccc2)CC1 | active: 16.4 µM |
| CCn1c(SCC(=O)Nc2ccccc2)nc2nc3c(cc2c1=O)COC(C)(C)C3 | active: 10.3 µM |
| COc1ccc(-c2cnc(SCC(=O)Nc3cc(C)on3)n2Cc2ccco2)cc1 | inconclusive: 23.1 µM [inhibitor, single point] |
| Cc1c(C(=O)NC(C)c2ccncc2)oc2ccccc12 (stereo not drawn) | inactive |
| COc1cccc(C(=O)NC(C)c2ccc(-c3ccccc3)cc2)c1OC (stereo not drawn) | inactive |
| CCOc1cccc(/C=C2/NC(=O)N(CC(=O)Nc3cccc(C)c3)C2=O)c1O | inconclusive: 0.0517 µM [inhibitor, partial curve, poor fit] |
| CCC(=O)Nc1cccc(-c2nc3ccc(C)cc3o2)c1 | inconclusive: 10.3 µM [activator, partial curve] |
| CSc1nnc(C)c(=O)n1COC(=O)COc1ccccc1 | inconclusive: 23.1 µM [activator, partial curve, poor fit] |
| CCn1ncc(Br)c1C(=O)Nc1ccc(C(=O)OC(C)C)cc1 | inconclusive: 23.1 µM [inhibitor, single point] |

In the list so far, 4 have an aryl methoxy group.

| Compound | Potency |
| --- | --- |
| COc1ccc(CCNC(=O)CCNS(=O)(=O)c2cc(Br)cnc2N)cc1OC | inconclusive: 23.1 µM [inhibitor, single point] |
| COc1cc(C(=O)Nc2cccc(-c3nc4cc(C)ccc4o3)c2)cc(OC)c1OC | active: 14.6 µM |
| COc1ccc(-c2cnc(SCC(=O)Nc3cc(C)on3)n2Cc2ccco2)cc1 | inconclusive: 23.1 µM [inhibitor, single point] |
| COc1cccc(C(=O)NC(C)c2ccc(-c3ccccc3)cc2)c1OC (stereo not drawn) | inactive |

Further results:

| Compound | Potency |
| --- | --- |
| CN(C)c1ccc(N=Nc2ccc(S(N)(=O)=O)cc2)cc1 | inconclusive: 6.51 µM [activator, partial curve] |
| CC(NC(=O)c1cc(-c2ccncc2)nc2ccc(Cl)cc12)C1CCCO1 (stereo not drawn) | inactive |
| N#C/C(=N\Nc1cccc(C(F)(F)F)c1)C(=O)c1ccsc1 | inconclusive: 29.1 µM [activator, single point] |
| CC(C)(C)c1ccc(CN2C(=O)CSC2=O)cc1 | inconclusive: 7.3 µM [activator, partial curve, poor fit] |
| NC(=O)/C(=C\c1ccccc1)NC(=O)c1ccc(NC(=O)c2ccccc2)cc1 | inactive |
| O=c1[nH]c(/C=C/c2ccccc2F)nc2ccccc12 | inconclusive: 3.98 µM [activator, partial curve, poor fit] |
| COc1ccc(C)cc1NC(=O)c1ccc(OCc2c(C)noc2C)cc1 | inconclusive: 25.9 µM [inhibitor, single point] |
| CSc1cccc(N2CC(C(=O)N(Cc3nnc(-c4ccccc4Cl)o3)C3CC3)CC2=O)c1 (stereo not drawn) | inconclusive: 5.8 µM [inhibitor, single point] |
| COc1cccc(NC(=O)CSc2nc3ccccc3c(=O)n2Cc2cccs2)c1 | inconclusive: 20.6 µM [inhibitor, partial curve, poor fit] |
| Cc1cnc(C(=O)Nc2ccc(S(=O)(=O)N(C(C)C)C(C)C)cc2)cn1 | inconclusive: 35.5 µM [activator, single point] |
| CC(C)[C@H](NS(=O)(=O)c1ccccc1)C(=O)OCC(=O)NCc1ccc2c(c1)OCO2 | inconclusive: 18.3 µM [inhibitor, partial curve] |
| COc1ccc(/C=C\C(=O)O[C@@H]2C(O)C(O[C@@H]3OC(C)[C@H](O[C@@H]4OCC(O[C@H]5O[C@H](CO)[C@@H](O)C(O)C5O)C(O)C4O)C(O)C3O)[C@H](OC(=O)[C@]34CCC(C)(C)C[C@@H]3C3=CCC5[C@@]6(C)CC(O)C(O[C@@H]7OC(CO)C(O)[C@H](O)[C@H]7O)[C@@](C)(C(=O)O)C6CC[C@@]5(C)[C@]3(CO)CC4)O[C@H]2C)cc1 (stereo partly drawn) | inconclusive: 6.51 µM [activator, single point] |
| O=C(CSc1nnc(CNC(=O)C23CC4CC(CC(C4)C2)C3)n1-c1ccccc1)Nc1ccc(F)cc1 | inconclusive: 20.6 µM [inhibitor, partial curve] |
| Cc1[nH]c2ccccc2c1N=Nc1c(C)n(C)n(-c2ccccc2)c1=O | active: 13 µM |
| COCCCNC(=O)c1ccc2c3c(onc13)-c1ccccc1C2=O | inconclusive: 2.59 µM [activator, partial curve] |
| O=C(CCS(=O)(=O)c1ccccc1)Nc1nc2cc3c(cc2s1)OCCO3 | inconclusive: 29.1 µM [activator, single point] |
| C[C@H](OC(=O)c1[nH]cnc1C(=O)N1CCN(C(=O)OC(C)(C)C)CC1)c1ccccc1 | inactive |
| N#C/C(=C\c1cc(Cl)cc(Cl)c1O)C(=O)NC1CCCCC1 | inconclusive: 3.26 µM [activator, single point] |
| Cn1nc(-c2ccc(C(=O)O)cc2)c2ccccc2c1=O | inconclusive: 16.4 µM [activator, single point] |
| COc1ccc(C2CC(c3ccccc3)=NN2C(=O)COC(=O)C2(C)CC2(Cl)Cl)cc1 (stereo not drawn) | inconclusive: 18.3 µM [inhibitor, single point] |
| COc1cccc(/C=N/NC(N)=S)c1OCc1cccc(Cl)c1 | inconclusive: 29.1 µM [inhibitor, single point] |

| Compound | Potency |
| --- | --- |
| C[C@H](CO)N1C[C@H](C)[C@@H](CN(C)CC2CCCCC2)Oc2ccc(NS(C)(=O)=O)cc2C1=O | inactive |
| CC(=O)N1N=C(c2ccc(C)cc2)OC1c1ccc(C)cc1 (stereo not drawn) | inconclusive: 16.4 µM [activator, partial curve] |
| Cc1ccc(-c2noc(CCCC(=O)Nc3cccnc3)n2)cc1 | inconclusive: 2.91 µM [inhibitor, full curve] |
| CCCC(C(=O)NC1CCCC1)N(Cc1cccs1)C(=O)c1snc(C(N)=O)c1N (stereo not drawn) | inconclusive: 23.1 µM [inhibitor, partial curve, poor fit] |
| COc1ccc(CCNC(=O)c2cc3ccccn3n2)c(OC)c1OC | inactive |
| Cc1cc(C)n(CC(O)CN(c2ccccc2)S(=O)(=O)c2ccccc2)n1 (stereo not drawn) | inactive |
| CC(=O)c1nnn(-c2ccc([N+](=O)[O-])cc2C)c1C | inactive |
| C/C(N)=C(/C#N)C(=O)CSc1nnc(Nc2ccccc2C)s1 | inactive |
| CCOc1cccc2sc(N(CCN(C)C)C(=O)c3cc4ccccc4cc3OC)nc12 | inconclusive: 25.9 µM [inhibitor, partial curve, poor fit] |
| CCCN1C(=O)c2cc(C(=O)Nc3ccccc3C)ccc2C1Nc1ccccc1C (stereo not drawn) | active: 23.1 µM |
| O=C(/C=C/c1ccccc1)N1CCN(c2c(Cl)cccc2[N+](=O)[O-])CC1 | inconclusive: 25.9 µM [inhibitor, partial curve, poor fit] |
| Cc1ccc(Nc2nnc(-c3ccncc3)s2)c(Br)c1 | inconclusive: 8.2 µM [inhibitor, partial curve, poor fit] |
| CCOc1ccc(CCNC(=O)c2ccc(CNS(=O)(=O)c3ccccc3)cc2)cc1OCC | inconclusive: 14.6 µM [inhibitor, partial curve, poor fit] |
| COc1cccc(N2CCN(C(=O)CCNS(=O)(=O)c3ccc(F)c(F)c3)CC2)c1 | inconclusive: 4.11 µM [inhibitor, single point] |
| O=C(O[C@@H]1OC2COC(=O)c3cc(O)c(O)c(O)c3-c3c(cc(O)c(O)c3O)C(=O)O[C@@H]([C@H]1O)[C@@H]2O)c1cc(O)c(O)c(O)c1 | inactive |
| O=c1[nH]c2ccccc2nc1NCc1ccccc1 | inconclusive: 20.6 µM [activator, single point] |
| Clc1ccc(-c2nnc(-c3cccnc3)o2)cc1 | inconclusive: 14.6 µM [activator, partial curve] |
| O=C(Nc1nnc(-c2ccccc2F)s1)c1ccccc1F | inconclusive: 2.59 µM [activator, full curve] |
| Cc1cccc(OCCC(=O)Nc2ccc(F)c(F)c2)c1 | inactive |
| Cc1nnc(NC(=O)C2CCN(S(=O)(=O)c3ccc(F)c(Cl)c3)CC2)o1 | inactive |
| Cc1csc(SCCn2c(N3CCN(c4ccccc4)CC3)nc3c2c(=O)[nH]c(=O)n3C)n1 | inconclusive: 29.1 µM [inhibitor, single point] |
